The numbers were not newly measured in US6121315A, “Oral compositions containing a zinc compound” (priority 1999, dated 2000), which cites them from elsewhere.

SMILES strings stand for the structures.

For the data set the following is noted: 5% by weight in water, nine-person taste panel; cited from earlier work.

As to `CC1CCC(C(C)C)C(OC(=O)CCC(=O)[O-])C1.[Na+]` (stereo not shown) [sodium monomenthyl succinate], the taste entry is “vile and bitter”.
